Measured values taken from publication PMC6909641.
No constants are given. Whether binding was seen depends on the method and setting. Binding seen in cells or lysates may run through a third protein. Some entries that bind do so weakly or less than the wild type. Values belong to the substance of their own block, whether it stands above or below them.

Chains of the proteins cited; added tags and fusions are not shown.
UniProt P46934: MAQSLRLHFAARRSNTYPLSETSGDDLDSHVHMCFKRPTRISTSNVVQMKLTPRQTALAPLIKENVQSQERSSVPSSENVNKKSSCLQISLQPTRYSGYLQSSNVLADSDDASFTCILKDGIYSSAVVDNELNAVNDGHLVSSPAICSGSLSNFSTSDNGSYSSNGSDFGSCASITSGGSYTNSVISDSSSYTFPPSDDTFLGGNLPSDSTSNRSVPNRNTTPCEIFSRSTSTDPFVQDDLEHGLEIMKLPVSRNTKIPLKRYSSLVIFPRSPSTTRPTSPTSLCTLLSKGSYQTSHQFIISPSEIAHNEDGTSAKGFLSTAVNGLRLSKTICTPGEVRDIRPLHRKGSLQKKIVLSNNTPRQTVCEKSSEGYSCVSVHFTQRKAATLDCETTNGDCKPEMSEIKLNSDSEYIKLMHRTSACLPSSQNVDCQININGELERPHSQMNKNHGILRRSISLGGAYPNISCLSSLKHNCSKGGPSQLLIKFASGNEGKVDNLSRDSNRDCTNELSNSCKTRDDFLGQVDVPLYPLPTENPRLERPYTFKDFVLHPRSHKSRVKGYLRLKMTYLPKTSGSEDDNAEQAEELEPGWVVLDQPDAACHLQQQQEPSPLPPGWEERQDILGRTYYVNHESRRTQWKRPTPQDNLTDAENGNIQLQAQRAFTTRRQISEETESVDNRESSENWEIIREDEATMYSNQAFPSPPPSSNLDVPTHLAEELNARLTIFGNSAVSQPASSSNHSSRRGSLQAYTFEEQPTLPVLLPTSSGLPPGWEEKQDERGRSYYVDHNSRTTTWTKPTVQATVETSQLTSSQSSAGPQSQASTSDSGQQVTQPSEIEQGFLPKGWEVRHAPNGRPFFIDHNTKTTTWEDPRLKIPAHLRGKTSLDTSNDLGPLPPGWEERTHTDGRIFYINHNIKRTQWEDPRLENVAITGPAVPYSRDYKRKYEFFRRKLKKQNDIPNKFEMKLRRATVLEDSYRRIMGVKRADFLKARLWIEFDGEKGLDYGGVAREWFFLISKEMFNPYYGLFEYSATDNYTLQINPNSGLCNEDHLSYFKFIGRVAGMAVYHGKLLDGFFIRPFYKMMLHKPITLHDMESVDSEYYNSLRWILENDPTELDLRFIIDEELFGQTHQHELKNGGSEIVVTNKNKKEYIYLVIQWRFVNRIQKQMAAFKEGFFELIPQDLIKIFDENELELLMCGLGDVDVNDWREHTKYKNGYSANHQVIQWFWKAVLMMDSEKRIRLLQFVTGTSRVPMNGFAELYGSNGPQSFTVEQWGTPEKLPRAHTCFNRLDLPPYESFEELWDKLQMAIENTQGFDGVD
UniProt P38936: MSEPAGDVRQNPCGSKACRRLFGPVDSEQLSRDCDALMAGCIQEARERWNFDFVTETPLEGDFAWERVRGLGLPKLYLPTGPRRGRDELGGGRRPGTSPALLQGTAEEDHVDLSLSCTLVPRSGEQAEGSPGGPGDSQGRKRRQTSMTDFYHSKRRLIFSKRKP

Tests used:
NEDD4 (overexpressed) = NEDD4 (overexpressed) (UniProt P46934); assay: co-IP; Flag-p21 and NEDD4 co-expressed in HEK 293 T cells; immunoprecipitation with anti-flag antibody and the reverse; western blot
[1] = target: p21 (human (endogenous in HCT116 and SW1116)) (UniProt P38936); assay: co-IP; endogenous proteins; HCT116 and SW1116 cells lysed in RIPA buffer with protease inhibitors; NEDD4 antibody or p21 antibody overnight at 4 °C, Protein A/G PLUS-Agarose; western blot
Flag-p21 = Flag-p21 (UniProt P38936); assay: co-IP; Flag-p21 and NEDD4 co-expressed in HEK 293 T cells; immunoprecipitation with anti-flag antibody and the reverse; western blot
[2] = target: NEDD4 (human (endogenous in HCT116 and SW1116)) (UniProt P46934); assay: co-IP; NEDD4 antibody immunoprecipitation from lysates of HCT116 and SW1116 cells with stable NDRG1 overexpression, NDRG1 knockdown and their controls; p21 in the complex detected by western blot
[3] = target: NEDD4 (human (endogenous in HCT116 and SW1116)) (UniProt P46934); assay: co-IP; endogenous proteins; HCT116 and SW1116 cells lysed in RIPA buffer with protease inhibitors; NEDD4 antibody or p21 antibody overnight at 4 °C, Protein A/G PLUS-Agarose; western blot

binding (NEDD4 (overexpressed)): binds
Substance: Flag-p21 (from UniProt P38936 1-164)

binding [1]: binds
Substance: NEDD4 (from UniProt P46934 1-1319) (enzyme)

binding (Flag-p21): binds
Substance: NEDD4 (overexpressed) (from UniProt P46934 1-1319) (enzyme)

binding [2]: binds | binding [3]: binds
Substance: p21 (from UniProt P38936 1-164)
